Source: the supplement of paper PMC10849652
The other results are listed elsewhere or left out.

By UniProt entry, the sequences of proteins in these tests, tags left out. Where a name states a change or a piece, a line headed by the entry shows the natural chain unless it says otherwise.
UniProt P08670, whole entry, looked up: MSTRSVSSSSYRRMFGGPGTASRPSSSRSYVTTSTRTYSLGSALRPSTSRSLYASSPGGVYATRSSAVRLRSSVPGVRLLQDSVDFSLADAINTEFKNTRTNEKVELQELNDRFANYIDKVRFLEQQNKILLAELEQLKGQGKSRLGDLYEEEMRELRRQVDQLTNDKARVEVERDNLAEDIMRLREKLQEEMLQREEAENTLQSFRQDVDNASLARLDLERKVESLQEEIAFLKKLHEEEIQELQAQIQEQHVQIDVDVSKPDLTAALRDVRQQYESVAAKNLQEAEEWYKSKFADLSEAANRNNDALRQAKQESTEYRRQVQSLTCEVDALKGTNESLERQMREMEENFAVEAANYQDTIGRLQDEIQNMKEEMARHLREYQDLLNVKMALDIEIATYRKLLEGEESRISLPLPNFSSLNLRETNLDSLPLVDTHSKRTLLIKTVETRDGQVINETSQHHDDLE
UniProt Q6P4I2: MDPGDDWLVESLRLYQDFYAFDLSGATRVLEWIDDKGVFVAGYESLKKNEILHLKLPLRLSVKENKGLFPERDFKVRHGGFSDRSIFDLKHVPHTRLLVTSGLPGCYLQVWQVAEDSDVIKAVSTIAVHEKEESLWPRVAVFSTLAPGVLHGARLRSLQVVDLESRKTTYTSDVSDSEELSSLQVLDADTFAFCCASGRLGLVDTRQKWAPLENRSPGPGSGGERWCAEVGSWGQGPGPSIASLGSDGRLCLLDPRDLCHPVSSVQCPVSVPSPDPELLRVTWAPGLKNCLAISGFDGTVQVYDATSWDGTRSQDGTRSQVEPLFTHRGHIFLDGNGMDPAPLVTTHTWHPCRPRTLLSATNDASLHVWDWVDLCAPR
UniProt O00534: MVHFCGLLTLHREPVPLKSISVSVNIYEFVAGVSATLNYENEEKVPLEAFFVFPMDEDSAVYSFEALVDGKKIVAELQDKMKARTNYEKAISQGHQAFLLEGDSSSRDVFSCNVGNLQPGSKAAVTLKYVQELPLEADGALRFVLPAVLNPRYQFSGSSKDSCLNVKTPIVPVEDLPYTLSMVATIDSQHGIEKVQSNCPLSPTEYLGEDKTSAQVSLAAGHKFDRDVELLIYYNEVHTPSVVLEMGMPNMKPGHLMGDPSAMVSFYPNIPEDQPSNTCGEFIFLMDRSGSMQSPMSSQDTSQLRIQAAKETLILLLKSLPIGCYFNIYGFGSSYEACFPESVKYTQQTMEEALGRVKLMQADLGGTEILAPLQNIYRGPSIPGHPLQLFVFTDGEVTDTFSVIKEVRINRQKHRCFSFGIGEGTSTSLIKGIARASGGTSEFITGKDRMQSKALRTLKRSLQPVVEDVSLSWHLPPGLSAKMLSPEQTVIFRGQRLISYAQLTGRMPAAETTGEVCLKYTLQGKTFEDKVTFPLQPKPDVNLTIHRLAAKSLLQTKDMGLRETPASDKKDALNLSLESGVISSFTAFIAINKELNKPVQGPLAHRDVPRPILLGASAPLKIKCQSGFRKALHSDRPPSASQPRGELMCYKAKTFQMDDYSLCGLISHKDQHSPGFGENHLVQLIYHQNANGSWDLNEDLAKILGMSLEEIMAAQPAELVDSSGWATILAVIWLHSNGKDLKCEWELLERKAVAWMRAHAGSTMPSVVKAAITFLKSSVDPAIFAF
UniProt P23381: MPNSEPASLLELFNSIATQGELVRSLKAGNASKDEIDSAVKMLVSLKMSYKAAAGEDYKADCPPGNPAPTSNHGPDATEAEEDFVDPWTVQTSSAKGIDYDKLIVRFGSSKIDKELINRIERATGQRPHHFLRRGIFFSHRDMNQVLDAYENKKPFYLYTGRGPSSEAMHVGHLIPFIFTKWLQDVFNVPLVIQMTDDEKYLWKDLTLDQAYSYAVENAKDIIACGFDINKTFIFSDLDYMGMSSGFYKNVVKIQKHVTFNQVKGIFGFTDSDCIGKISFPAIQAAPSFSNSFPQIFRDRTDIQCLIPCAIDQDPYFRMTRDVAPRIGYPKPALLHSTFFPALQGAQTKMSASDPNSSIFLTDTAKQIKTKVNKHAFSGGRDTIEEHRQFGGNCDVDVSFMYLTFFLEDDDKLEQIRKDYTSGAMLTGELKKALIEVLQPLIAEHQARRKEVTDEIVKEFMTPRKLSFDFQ
UniProt O75083: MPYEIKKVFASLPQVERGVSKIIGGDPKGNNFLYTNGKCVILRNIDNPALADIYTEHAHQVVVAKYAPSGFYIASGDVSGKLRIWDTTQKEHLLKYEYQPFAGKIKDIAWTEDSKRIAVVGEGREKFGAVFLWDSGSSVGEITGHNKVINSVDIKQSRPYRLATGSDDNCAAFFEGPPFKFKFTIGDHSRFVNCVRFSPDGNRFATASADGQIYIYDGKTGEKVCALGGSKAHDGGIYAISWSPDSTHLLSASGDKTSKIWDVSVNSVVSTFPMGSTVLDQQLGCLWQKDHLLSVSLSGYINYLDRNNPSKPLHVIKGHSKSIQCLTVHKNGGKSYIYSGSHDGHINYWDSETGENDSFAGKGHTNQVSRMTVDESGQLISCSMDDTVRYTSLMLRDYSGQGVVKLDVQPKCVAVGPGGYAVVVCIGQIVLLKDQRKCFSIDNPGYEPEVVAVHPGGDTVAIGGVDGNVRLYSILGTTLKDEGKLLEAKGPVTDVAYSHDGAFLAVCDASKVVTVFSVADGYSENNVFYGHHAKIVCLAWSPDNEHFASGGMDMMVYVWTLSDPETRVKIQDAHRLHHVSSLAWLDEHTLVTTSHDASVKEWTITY
UniProt Q9HBM0: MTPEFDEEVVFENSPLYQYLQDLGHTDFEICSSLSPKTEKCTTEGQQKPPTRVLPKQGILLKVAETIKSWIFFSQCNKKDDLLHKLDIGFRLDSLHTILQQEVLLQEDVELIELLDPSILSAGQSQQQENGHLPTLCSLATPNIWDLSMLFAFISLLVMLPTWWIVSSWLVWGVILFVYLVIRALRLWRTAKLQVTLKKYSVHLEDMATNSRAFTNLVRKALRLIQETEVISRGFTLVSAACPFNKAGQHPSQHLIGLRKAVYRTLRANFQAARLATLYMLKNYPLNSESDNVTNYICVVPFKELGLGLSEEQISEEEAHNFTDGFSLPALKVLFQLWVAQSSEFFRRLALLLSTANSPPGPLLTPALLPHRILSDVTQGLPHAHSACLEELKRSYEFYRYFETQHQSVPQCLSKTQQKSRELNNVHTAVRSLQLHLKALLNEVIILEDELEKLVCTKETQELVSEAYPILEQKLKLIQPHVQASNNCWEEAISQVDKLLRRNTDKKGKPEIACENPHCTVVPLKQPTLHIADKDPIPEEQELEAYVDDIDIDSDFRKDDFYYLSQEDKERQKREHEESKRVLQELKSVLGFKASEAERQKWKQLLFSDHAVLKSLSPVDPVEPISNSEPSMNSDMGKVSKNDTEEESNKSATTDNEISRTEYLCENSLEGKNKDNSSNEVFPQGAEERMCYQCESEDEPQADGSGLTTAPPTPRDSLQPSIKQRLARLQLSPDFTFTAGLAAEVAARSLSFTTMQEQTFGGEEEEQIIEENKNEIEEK
UniProt Q969T9: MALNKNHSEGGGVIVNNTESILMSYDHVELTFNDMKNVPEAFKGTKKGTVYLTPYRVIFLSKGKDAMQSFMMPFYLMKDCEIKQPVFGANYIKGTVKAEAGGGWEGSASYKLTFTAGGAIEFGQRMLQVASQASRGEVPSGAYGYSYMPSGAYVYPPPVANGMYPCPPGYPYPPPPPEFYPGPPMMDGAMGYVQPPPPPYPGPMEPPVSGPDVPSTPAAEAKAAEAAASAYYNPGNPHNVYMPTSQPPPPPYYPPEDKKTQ
UniProt Q9P2S5: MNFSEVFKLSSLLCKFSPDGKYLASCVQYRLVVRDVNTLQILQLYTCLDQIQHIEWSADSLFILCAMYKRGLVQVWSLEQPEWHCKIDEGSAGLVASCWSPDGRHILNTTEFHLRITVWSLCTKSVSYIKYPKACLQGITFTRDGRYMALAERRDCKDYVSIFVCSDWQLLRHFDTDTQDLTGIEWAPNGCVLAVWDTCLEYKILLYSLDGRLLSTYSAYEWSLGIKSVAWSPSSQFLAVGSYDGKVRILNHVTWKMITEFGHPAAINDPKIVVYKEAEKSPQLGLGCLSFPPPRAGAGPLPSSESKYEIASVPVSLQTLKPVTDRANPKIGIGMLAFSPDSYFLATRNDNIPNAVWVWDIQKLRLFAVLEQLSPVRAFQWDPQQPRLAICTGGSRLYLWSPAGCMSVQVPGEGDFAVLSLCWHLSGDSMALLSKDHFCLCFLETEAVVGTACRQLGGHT
UniProt Q6UXN9, whole entry, looked up: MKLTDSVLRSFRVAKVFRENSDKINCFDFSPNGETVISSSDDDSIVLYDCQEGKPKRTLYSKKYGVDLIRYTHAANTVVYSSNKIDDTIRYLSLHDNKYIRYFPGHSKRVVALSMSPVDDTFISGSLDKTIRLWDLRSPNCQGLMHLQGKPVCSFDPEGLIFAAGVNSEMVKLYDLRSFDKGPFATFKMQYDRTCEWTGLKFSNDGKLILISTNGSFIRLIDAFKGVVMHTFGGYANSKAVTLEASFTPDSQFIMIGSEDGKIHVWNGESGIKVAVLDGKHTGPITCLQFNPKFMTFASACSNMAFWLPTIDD
UniProt O95785: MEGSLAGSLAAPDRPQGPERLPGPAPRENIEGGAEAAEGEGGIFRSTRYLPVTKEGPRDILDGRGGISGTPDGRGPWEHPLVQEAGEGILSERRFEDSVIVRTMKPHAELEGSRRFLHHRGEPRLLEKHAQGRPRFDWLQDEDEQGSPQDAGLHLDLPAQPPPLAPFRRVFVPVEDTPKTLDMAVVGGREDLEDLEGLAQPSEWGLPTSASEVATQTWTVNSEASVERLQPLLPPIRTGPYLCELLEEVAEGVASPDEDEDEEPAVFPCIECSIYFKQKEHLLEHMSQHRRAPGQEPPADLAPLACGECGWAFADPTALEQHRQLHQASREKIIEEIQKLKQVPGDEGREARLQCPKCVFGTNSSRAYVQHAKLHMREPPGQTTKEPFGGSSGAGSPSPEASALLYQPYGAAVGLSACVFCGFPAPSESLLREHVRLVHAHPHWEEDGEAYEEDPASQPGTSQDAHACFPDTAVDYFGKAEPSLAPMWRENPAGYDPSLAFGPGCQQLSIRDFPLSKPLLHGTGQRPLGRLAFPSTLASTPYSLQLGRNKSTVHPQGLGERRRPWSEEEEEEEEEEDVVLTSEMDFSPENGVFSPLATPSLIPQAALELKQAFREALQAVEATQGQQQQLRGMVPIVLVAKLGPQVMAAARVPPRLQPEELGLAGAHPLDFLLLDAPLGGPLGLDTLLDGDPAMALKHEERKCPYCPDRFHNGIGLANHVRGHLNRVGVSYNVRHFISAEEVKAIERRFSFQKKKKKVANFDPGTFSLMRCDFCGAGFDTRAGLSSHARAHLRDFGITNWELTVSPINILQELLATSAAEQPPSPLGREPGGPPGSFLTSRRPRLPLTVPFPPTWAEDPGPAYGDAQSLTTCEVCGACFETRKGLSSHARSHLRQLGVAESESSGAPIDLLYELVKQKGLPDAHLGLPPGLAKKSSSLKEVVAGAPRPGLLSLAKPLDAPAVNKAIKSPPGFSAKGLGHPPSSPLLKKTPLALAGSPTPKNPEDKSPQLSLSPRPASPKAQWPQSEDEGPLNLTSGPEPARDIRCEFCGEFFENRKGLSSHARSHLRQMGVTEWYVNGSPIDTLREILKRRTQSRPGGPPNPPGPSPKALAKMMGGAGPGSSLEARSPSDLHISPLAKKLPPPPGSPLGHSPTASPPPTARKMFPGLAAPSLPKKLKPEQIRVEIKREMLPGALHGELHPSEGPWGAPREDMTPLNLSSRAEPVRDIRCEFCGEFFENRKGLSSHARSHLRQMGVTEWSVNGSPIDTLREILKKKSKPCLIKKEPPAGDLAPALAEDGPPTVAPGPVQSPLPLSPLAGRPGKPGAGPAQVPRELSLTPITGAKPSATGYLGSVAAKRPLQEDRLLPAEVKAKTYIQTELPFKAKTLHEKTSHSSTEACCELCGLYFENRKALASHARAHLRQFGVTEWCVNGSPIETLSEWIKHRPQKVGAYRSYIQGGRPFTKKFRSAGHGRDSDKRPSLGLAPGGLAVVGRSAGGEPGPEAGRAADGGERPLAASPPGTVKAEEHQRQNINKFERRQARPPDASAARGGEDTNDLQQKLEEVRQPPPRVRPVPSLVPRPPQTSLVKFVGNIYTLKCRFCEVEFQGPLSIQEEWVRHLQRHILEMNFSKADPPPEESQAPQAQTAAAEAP
UniProt Q8IWB7: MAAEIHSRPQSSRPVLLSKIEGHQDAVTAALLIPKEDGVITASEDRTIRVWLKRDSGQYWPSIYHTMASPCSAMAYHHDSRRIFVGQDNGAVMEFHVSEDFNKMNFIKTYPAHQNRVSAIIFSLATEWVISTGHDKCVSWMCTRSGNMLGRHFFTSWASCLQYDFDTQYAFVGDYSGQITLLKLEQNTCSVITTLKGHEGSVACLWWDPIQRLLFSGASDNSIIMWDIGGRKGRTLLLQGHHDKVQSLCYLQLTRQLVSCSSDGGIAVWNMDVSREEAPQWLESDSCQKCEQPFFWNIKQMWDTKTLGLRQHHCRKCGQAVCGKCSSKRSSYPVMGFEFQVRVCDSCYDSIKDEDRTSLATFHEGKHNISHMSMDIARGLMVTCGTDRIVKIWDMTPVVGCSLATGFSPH

What was measured:
Assay in all cases: log2 fold change, soluble protein after heating vs DMSO (PISA); higher = thermal stabilisation; K562 cells, 10 uM, 30 min; active = over 0.2 and 3.5 SD of the protein, either way, in both replicates (recomputed)
[1] = compound: CS(=O)(=O)c1ccc(-c2cnc(N)c(C(=O)Nc3ccccc3)n2)cc1
Procedure, shortened: (§1)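 K562 cells at 2×10^6 cells/mL were treated with 10 μM compound for 30 min. Aliquots were heated for 3 min across 48°C-58°C, pooled, and extracted in PBS with 0.5% NP-40 at 4°C; soluble protein was the supernatant after 21,000xg for 90 min. Soluble protein was quantified by TMTpro 16plex LC-MS/MS with channel sums equalised, and reported as log2 fold change in thermal stability against DMSO controls, with values from duplicates.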

[2] = compound: C[C@@H](Oc1cc(-c2cnn(C3CCNCC3)c2)cnc1N)c1c(Cl)ccc(F)c1Cl [crizotinib]
Procedure, shortened: as §1

[3] = compound: C[C@@H]1COCCN1C2=NC(=NC(=C2)C3(CC3)S(=O)(=O)C)C4=C5C=CNC5=CC=C4
Procedure, shortened: as §1

[4] = compound: C[C@H](C1=CC=C(C=C1)C(=O)NC2=C3C=CNC3=NC=C2)N
Procedure, shortened: as §1

[5] = compound: C[C@H](Nc1ncnc2nc[nH]c12)c1cc2cccc(Cl)c2c(=O)n1-c1ccccc1 [duvelisib]
Procedure, shortened: as §1

[6] = compound: Cc1cc(Nc2cc(CN3CCOCC3)c3nc(C)c(Cc4ccc(Cl)cc4F)n3n2)n[nH]1 [gandotinib]
Procedure, shortened: as §1

[7] = compound: Cc1cc(Nc2cc(N3CCN(C)CC3)nc(Sc3ccc(NC(=O)C4CC4)cc3)n2)n[nH]1 [tozasertib]
Procedure, shortened: as §1

[8] = compound: Cc1cc(SCc2sc(-c3ccc(C(F)(F)F)cc3)nc2C)ccc1OCC(=O)O
Procedure, shortened: as §1

[9] = compound: Cc1ccc(-n2nc(C(C)(C)C)cc2NC(=O)Nc2ccc(OCCN3CCOCC3)c3ccccc23)cc1 [doramapimod]
Procedure, shortened: as §1

[10] = compound: Cc1ccc(C(=O)N(CCCN)[C@@H](c2nc3cc(Cl)ccc3c(=O)n2Cc2ccccc2)C(C)C)cc1 [ispinesib]
Procedure, shortened: as §1

Measured: log2 fold change

VIM (UniProt P08670)
inactive: [1] 0.072 | [2] 0.283 | [3] -0.326 | [4] 0.188 | [5] -0.234 | [6] 0.179 | [7] 0.405 | [8] 0.105 | [9] 0.176 | [10] -0.129

VPS13A (UniProt Q96RL7)
inactive: [1] 0.03 | [2] -0.05 | [3] 0.007 | [4] 0.003 | [5] 0.059 | [6] -0.015 | [7] -0.021 | [8] -0.008 | [9] 0.01 | [10] -0.024

VPS26A (UniProt O75436)
inactive: [1] 0.001 | [2] -0.066 | [3] 0.001 | [4] -0.076 | [5] 0.009 | [6] -0.059 | [7] 0.007 | [8] 0.059 | [9] 0.002 | [10] -0.003

WDR70 (UniProt Q9NW82)
inactive: [1] 0.015 | [2] 0.062 | [3] 0.093 | [4] -0.06 | [5] 0.02 | [6] -0.014 | [7] -0.005 | [8] 0.01 | [9] -0.029 | [10] 0.068

Reprinted at random: 2 records from the list
VIM (UniProt P08670)
inactive: [1] 0.072 | [2] 0.283 | [3] -0.326 | [4] 0.188 | [5] -0.234 | [6] 0.179 | [7] 0.405 | [8] 0.105 | [9] 0.176 | [10] -0.129

WDR70 (UniProt Q9NW82)
inactive: [1] 0.015 | [2] 0.062 | [3] 0.093 | [4] -0.06 | [5] 0.02 | [6] -0.014 | [7] -0.005 | [8] 0.01 | [9] -0.029 | [10] 0.068

(list continues)

WDR73 (UniProt Q6P4I2)
inactive: [1] -0.001 | [2] 0.047 | [3] 0.067 | [4] -0.04 | [5] 0.027 | [6] -0.094 | [7] 0.02 | [8] -0.002 | [9] -0.01 | [10] 0.031

WDR5 (UniProt P61964)
inactive: [1] -0.082 | [2] -0.006 | [3] -0.207 | [4] 0.138 | [5] -0.072 | [6] 0.082 | [7] 0.017 | [8] 0 | [9] 0.024 | [10] -0.051

VWA5A (UniProt O00534)
inactive: [1] 0.038 | [2] 0.145 | [3] 0.009 | [4] -0.069 | [5] 0.042 | [6] -0.027 | [7] 0.027 | [8] 0.008 | [9] -0.052 | [10] 0.069

VPS13C (UniProt Q709C8)
inactive: [1] 0.034 | [2] -0.127 | [3] 0.046 | [4] 0.013 | [5] 0.056 | [6] -0.017 | [7] -0.006 | [8] 0.011 | [9] 0 | [10] -0.099

VPS45 (UniProt Q9NRW7)
inactive: [1] 0.045 | [2] -0.11 | [3] 0.023 | [4] 0.034 | [5] -0.013 | [6] -0.082 | [7] -0.063 | [8] 0.149 | [9] -0.026 | [10] -0.174

WARS (UniProt P23381)
inactive: [1] 0.011 | [2] 0.018 | [3] 0.029 | [4] -0.083 | [5] 0.032 | [6] -0.011 | [7] -0.003 | [8] 0.01 | [9] 0.019 | [10] 0.067

WRAP53 (UniProt Q9BUR4)
inactive: [1] 0.012 | [2] -0.096 | [3] -0.111 | [4] 0.134 | [5] -0.07 | [6] 0.161 | [7] -0.007 | [8] 0.014 | [9] 0.008 | [10] -0.043

VPS26C (UniProt O14972)
inactive: [1] 0.05 | [2] -0.157 | [3] -0.052 | [4] 0.028 | [5] 0.071 | [6] -0.139 | [7] 0.014 | [8] 0.005 | [9] -0.063 | [10] -0.065

WRNIP1 (UniProt Q96S55)
inactive: [1] 0.014 | [2] -0.31 | [3] 0.101 | [4] -0.032 | [5] 0.017 | [6] -0.216 | [7] -0.047 | [8] 0.141 | [9] -0.047 | [10] -0.29

WDR1 (UniProt O75083)
inactive: [1] 0.049 | [2] 0.01 | [3] 0.075 | [4] -0.059 | [5] 0.047 | [6] -0.004 | [7] -0.009 | [8] 0.038 | [9] -0.024 | [10] 0.062

WDTC1 (UniProt Q8N5D0)
inactive: [1] -0.055 | [2] 0.137 | [3] 0.009 | [4] 0.129 | [5] -0.035 | [6] 0.025 | [7] 0.021 | [8] -0.069 | [9] -0.131 | [10] 0.008

WDR59 (UniProt Q6PJI9)
inactive: [1] -0.032 | [2] 0.074 | [3] -0.405 | [4] 0.012 | [5] 0.004 | [6] 0.069 | [7] -0.004 | [8] -0.059 | [9] -0.057 | [10] -0.11

VEZT (UniProt Q9HBM0)
inactive: [1] -0.015 | [2] 0.03 | [3] 0.159 | [4] -0.046 | [5] -0.041 | [6] -0.077 | [7] -0.077 | [8] 0.068 | [9] 0.05 | [10] -0.225

WDR74 (UniProt Q6RFH5)
inactive: [1] -0.037 | [2] -0.06 | [3] -0.296 | [4] 0.238 | [5] -0.028 | [6] 0.201 | [7] -0.027 | [8] -0.032 | [9] 0.145 | [10] -0.187

WBP2 (UniProt Q969T9)
inactive: [1] 0.033 | [2] 0.024 | [3] -0.007 | [4] -0.087 | [5] 0.029 | [6] 0.06 | [7] 0.004 | [8] 0.019 | [9] -0.028 | [10] 0.052

WARS1 (UniProt G3V3P2)
inactive: [1] -0.07

VPS26B (UniProt Q4G0F5)
inactive: [1] 0.024 | [2] -0.022 | [3] -0.01 | [4] -0.015 | [5] 0.004 | [6] -0.068 | [7] -0.021 | [8] 0.019 | [9] -0.008 | [10] -0.018

WRAP73 (UniProt Q9P2S5)
inactive: [1] -0.071 | [2] -0.045 | [3] -0.038 | [4] -0.016 | [5] 0.081 | [6] -0.011 | [7] -0.065 | [8] -0.015 | [9] -0.014 | [10] 0.086

VPS29 isoform 2 (UniProt Q9UBQ0)
inactive: [1] 0.04 | [2] -0.008 | [3] 0.018 | [4] -0.045 | [5] 0.007 | [6] -0.052 | [7] -0.042 | [8] -0.092 | [9] -0.015 | [10] -0.002

WDR82 (UniProt Q6UXN9)
inactive: [1] -0.014 | [2] 0.047 | [3] -0.133 | [4] 0.09 | [5] -0.086 | [6] 0.111 | [7] 0.04 | [8] -0.003 | [9] 0.062 | [10] 0.014

WIZ (UniProt O95785)
inactive: [1] 0.032 | [2] -0.147 | [3] 0.03 | [4] 0.003 | [5] 0 | [6] -0.009 | [7] -0.064 | [8] 0 | [9] 0.034 | [10] -0.118

WDR36 (UniProt Q8NI36)
inactive: [1] 0.033 | [2] -0.046 | [3] -0.109 | [4] 0.187 | [5] -0.047 | [6] 0.132 | [7] -0.039 | [8] 0.037 | [9] 0.096 | [10] -0.027

VDAC2 (UniProt P45880)
inactive: [1] 0.017 | [2] 0.027 | [3] -0.009 | [4] -0.05 | [5] 0.023 | [6] 0.006 | [7] -0.014 | [8] -0.026 | [9] -0.021 | [10] -0.005

VMP1 (UniProt Q96GC9)
inactive: [1] 0 | [2] 0.068 | [3] -0.19 | [4] 0.006 | [5] -0.017 | [6] -0.019 | [7] -0.01 | [8] -0.024 | [9] 0.02 | [10] -0.011

WDFY1 (UniProt Q8IWB7)
inactive: [1] 0.022 | [2] 0.019 | [3] 0.052 | [4] -0.038 | [5] -0.047 | [6] 0.026 | [7] -0.029 | [8] 0 | [9] -0.027 | [10] -0.101

VPS35 (UniProt Q96QK1)
inactive: [1] 0.018 | [2] -0.09 | [3] 0.092 | [4] -0.068 | [5] 0.034 | [6] -0.118 | [7] -0.025 | [8] 0.034 | [9] -0.022 | [10] -0.013

WIZ isoform 3 (UniProt O95785)
inactive: [1] 0.043 | [2] -0.103 | [3] 0.043 | [4] 0.087 | [5] -0.025 | [6] -0.191 | [7] -0.041 | [8] -0.011 | [9] 0.051 | [10] -0.054

Two neighbouring records already listed, quoted:
WBP2 (UniProt Q969T9)
inactive: [1] 0.033 | [2] 0.024 | [3] -0.007 | [4] -0.087 | [5] 0.029 | [6] 0.06 | [7] 0.004 | [8] 0.019 | [9] -0.028 | [10] 0.052

WARS1 (UniProt G3V3P2)
inactive: [1] -0.07
